Experimental data: US4666889A, “Method for combatting viral infections” (Fujisawa Pharmaceutical Co., Ltd., priority 1983, dated 1987)
Not every detail of the peptide structures is certain; ends, links or a residue may be inferred. Starred links: 1 amine or outer side, 2 acyl side, 3 side chain; linkers in the order of their positions; H or OH if unused. Non-standard residues stand in square brackets, D forms with d. Residues, ends and D or L forms follow the SMILES beside them. *: point of attachment. d(γGlu) = O=C(O)[C@@H](CCC(=O)[*:2])N[*:1]; Stearoyl = CCCCCCCCCCCCCCCCCC(=O)*; Octanoyl = CCCCCCCC(=O)*

Tested on: Friend leukemia virus
Assay: Inhibitory effects against Friend leukemia virus-induced splenomegaly
Type: in vivo, mice
Conditions: for Mean spleen weight: 14 days after infection; for Infection inhibition: from spleen weight 14 days after infection
[1] = Experiment 1: C3H/HeN mice, i.p. 0.01 mg/kg, 6, 5, 4, 1 day before infection
[2] = Experiment 1: C3H/HeN mice, i.p. 1 mg/kg, 6, 5, 4, 1 day before infection
[3] = Experiment 1: C3H/HeN mice, i.p. 10 mg/kg, 6, 5, 4, 1 day before infection
[4] = Experiment 2: C3H/HeN mice, i.p. 0.01 mg/kg, 6, 5, 4, 1 day before and 1, 2, 3 days after infection
[5] = Experiment 2: C3H/HeN mice, i.p. 1 mg/kg, 6, 5, 4, 1 day before and 1, 2, 3 days after infection
[6] = Experiment 2: C3H/HeN mice, i.p. 10 mg/kg, 6, 5, 4, 1 day before and 1, 2, 3 days after infection

Work on CCCCCCCC(=O)N[C@H](CCC(=O)N[C@@H](CCCCN)C(=O)N[C@H](C)C(=O)O)C(=O)O [Compound (4)] ({Octanoyl-d(γGlu)}-Lys-[dA]-OH) yielded a Mean spleen weight [1] of 1236 ± 59 mg, an Infection inhibition [1] of 24.7% and a Mean spleen weight [2] of 1178 ± 71 mg. It also gave an Infection inhibition [2] of 28.5%, a Mean spleen weight [3] of 957 ± 143 mg and an Infection inhibition [3] of 42.9%. For the same compound, the Mean spleen weight [4] was 1361 ± 112 mg, the Infection inhibition [4] was 16.5% and the Mean spleen weight [5] was 1148 ± 83 mg. The Infection inhibition [5] was 30.5%, the Mean spleen weight [6] was 1047 ± 178 mg and the Infection inhibition [6] was 37.1%.
With CCCCCCCCCCCCCCCCCC(=O)N[C@H](CCC(=O)N[C@@H](CCCCN)C(=O)N[C@H](C)C(=O)O)C(=O)O [Compound (3)] ({Stearoyl-d(γGlu)}-Lys-[dA]-OH) the Mean spleen weight [1] was 1504 ± 74 mg, the Infection inhibition [1] was 7.2% and the Mean spleen weight [2] was 1329 ± 98 mg. For the same compound, the Infection inhibition [2] was 18.7%, the Mean spleen weight [3] was 1066 ± 169 mg and the Infection inhibition [3] was 35.8%. The Mean spleen weight [4] was 1146 ± 149 mg, the Infection inhibition [4] was 30.6% and the Mean spleen weight [5] was 1105 ± 102 mg. For the same compound, the Infection inhibition [5] was 33.3%, the Mean spleen weight [6] was 1089 ± 167 mg and the Infection inhibition [6] was 34.6%.
